The test relates to human blood platelets. Put plainly: In vitro inhibition of ADP-induced human platelet aggregation (platelet-rich plasma, aggregometer). The test is classed as cell-based. The settings on record: read-out: Ia50 (compound concentrations affecting 50% inhibition of aggregation) ± S.E., Table II, n = 5 for (0)I and 6 for all others. As for the experimental part: Procedure for Determining In Vitro Platelet Aggregation-Inhibitory Activity. Adenosine diphosphate (ADP) was used to induce platelet aggregation and was utilized as the sodium salt. A 10 mM stock solution was prepared fresh before each use in modified Tyrode's buffer and working dilutions were prepared with modified Tyrode's buffer immediately prior to use. The buffer contained NaCl (137.00 mM), KCl (2.70 mM), NaHCO3 (11.90 mM), NaH2 PO4 H2 O (0.36 mM) and glucose (5.60 mM) in redistilled water. Adjustment to pH 7.4 was effected by addition of 1N HCl.
The blood was transferred into plastic centrifuge tubes containing 3.2% sodium citrate (blood/citrate ratio 8:1) and centrifuged at 120Xg for 15 minutes at 23° C., yielding platelet-rich plasma (PRP); platelet-poor-plasma (PPP) was obtained by centrifugation of citrated whole blood at 1,100Xg for 15 min at 23° C. The platelet count of PRP was determined and adjusted to a final count of 300,000 platelet per mm^3 by dilution with autologous PPP. […]
Initially, in each experiment, 0.45-ml aliquots of PRP were placed in siliconized cuvettes and stirred (1,100 rpm) in the aggregometer at 37° C. to ascertain the absence of spontaneous aggregation. […] In each case, the concentration of ADP so determined was used in eliciting aggregation throughout each specific set of aggregometric evaluations. […]

With `CC(C)NCC(O)COc1cccc2ccccc12` (stereo not shown) [Propranolol, reference compound], the IC50 worked out at 175 ± 17 µM.

(Values after US5219867A, “Platelet aggregation inhibitory agents” (priority 1992, dated 1993).)
